PubChem BioAssay AID743121, NCATS – 2013

Assay: 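Genes whose silencing strengthens cell killing by camptothecin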 (primary screen)
Cell system: MDA-MB-231 cells, a human breast cancer line
Reagent: single siRNA against human genes, 20 nM siRNA (0.8 pmol per well)
Timing: 120 h (drug added 48 h after transfection, read 72 h later)
Challenge: camptothecin 20 nM (about EC30) for 72 h; vehicle 0.1% DMSO in parallel plates
Detection: 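Cell viability by ATP luminescence (CellTiter-Glo) as % of non-targeting siRNA wells, and the log2 ratio of viability without drug over viability with camptothecin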
Reading the numbers: log2 vehicle/camptothecin viability: higher = stronger sensitisation to camptothecin
Hit rule: 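Each gene scored by redundant siRNA activity (RSA) over its individual siRNA ratios; a gene is called active at p < 0.001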
This is a random part of about 26,000 reagents tested. 167 of them (0.63%) count as active. 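Calls are per gene from RSA p-values that are not deposited; an individual active-marked siRNA can sensitise only weakly.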 Reagents against one gene are numbered here. Not all columns of the deposit are shown.

no.	Target gene	reagent no.	log2 vehicle/camptothecin viability	outcome
1	S1PR2	1	-0.147	inactive
2	S1PR2	2	-0.19	inactive
3	S1PR2	3	-0.146	inactive
4	S1PR2	4	-0.0484	inactive
5	TRPM6	1	-0.0757	inactive
6	TRPM6	2	0.12	inactive
7	TRPM6	3	-0.41	inactive
8	TRPM6	4	0.00994	inactive
9	PPM1E	1	0.14	inactive
10	PPM1E	2	-0.138	inactive
11	PPM1E	3	-0.425	inactive
12	PPM1E	4	0.485	inactive
13	GRB10	1	-0.163	inactive
14	GRB10	2	-0.0106	inactive
15	GRB10	3	-0.27	inactive
16	GRB10	4	0.223	inactive
17	CKLF	1	-0.246	inactive
18	CKLF	2	-0.098	inactive
19	CKLF	3	-0.262	inactive
20	CKLF	4	-0.206	inactive
21	PICALM	1	-0.529	inactive
22	PICALM	2	-0.562	inactive
23	PICALM	3	-0.103	inactive
24	PICALM	4	-0.507	inactive
25	USP6	1	-0.54	inactive
26	USP6	2	0.0763	inactive
27	USP6	3	0.0329	inactive
28	CCNL1	1	-0.246	inactive
29	CCNL1	2	-0.0939	inactive
30	CCNL1	3	-0.0325	inactive
31	CCNL1	4	0.0448	inactive
32	OR4N4	1	-0.219	inactive
33	OR4N4	2	-0.116	inactive
34	OR4N4	3	-0.389	inactive
35	OR4N4	4	-0.0921	inactive
36	CLEC5A	1	-0.062	inactive
37	CLEC5A	2	-0.273	inactive
38	CLEC5A	3	0.139	inactive
39	CLEC5A	4	-0.83	inactive
40	FOSL1	1	-0.0691	inactive
41	FOSL1	2	-0.311	inactive
42	FOSL1	3	-0.117	inactive
43	AKAP6	1	-0.159	inactive
44	AKAP6	2	-0.536	inactive
45	AKAP6	3	-0.163	inactive
46	AKAP6	4	-0.306	inactive
47	NID2	1	0.251	inactive
48	NID2	2	0.526	inactive
49	NID2	3	-0.0848	inactive
50	NID2	4	-0.29	inactive
51	LIMS1	1	-0.307	inactive
52	LIMS1	2	-0.19	inactive
53	LIMS1	3	-0.325	inactive
54	LIMS1	4	0.383	inactive
55	ABCG4	1	-0.171	inactive
56	ABCG4	2	-0.0957	inactive
57	ABCG4	3	0.0432	inactive
58	ABCG4	4	-0.254	inactive
59	BSCL2	1	-0.106	inactive
60	BSCL2	2	-0.488	inactive
61	BSCL2	3	-0.455	inactive
62	BSCL2	4	-0.44	inactive
63	VDAC3	1	-0.243	inactive
64	VDAC3	2	-0.0792	inactive
65	VDAC3	3	-0.387	inactive
66	VDAC3	4	-0.36	inactive
67	UNC5B	1	-0.112	inactive
68	UNC5B	2	0.183	inactive
69	UNC5B	3	-0.378	inactive
70	UNC5B	4	-0.0113	inactive
71	TTC3	1	-0.0792	inactive
72	TTC3	2	0.2	inactive
73	TTC3	3	-0.0527	inactive
74	TTC3	4	1.03	inactive
75	ITGAM	1	-0.305	inactive
76	ITGAM	2	-0.524	inactive
77	ITGAM	3	0.0941	inactive
78	ITGAM	4	0.0745	inactive
79	IL2RG	1	-0.0251	inactive
80	IL2RG	2	-0.325	inactive
81	IL2RG	3	-0.16	inactive
82	IL2RG	4	-0.197	inactive
83	CPT2	1	-0.434	inactive
84	CPT2	2	-0.374	inactive
85	CPT2	3	-0.0879	inactive
86	CPT2	4	-0.0237	inactive
87	TFE3	1	-0.151	inactive
88	TFE3	2	0.109	inactive
89	TFE3	3	-0.202	inactive
90	TFE3	4	-0.0276	inactive
